Reference: article PMC9113592

By UniProt entry, the sequences of proteins in these tests, tags left out. Where a name states a change or a piece, a line headed by the entry shows the natural chain unless it says otherwise.
UniProt Q38BC5: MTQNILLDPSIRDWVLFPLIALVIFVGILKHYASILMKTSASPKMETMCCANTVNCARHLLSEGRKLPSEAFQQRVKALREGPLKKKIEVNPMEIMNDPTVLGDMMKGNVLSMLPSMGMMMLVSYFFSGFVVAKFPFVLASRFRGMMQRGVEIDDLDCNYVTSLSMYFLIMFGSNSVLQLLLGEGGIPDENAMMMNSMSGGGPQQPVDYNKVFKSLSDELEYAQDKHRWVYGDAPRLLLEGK
UniProt Q580G6: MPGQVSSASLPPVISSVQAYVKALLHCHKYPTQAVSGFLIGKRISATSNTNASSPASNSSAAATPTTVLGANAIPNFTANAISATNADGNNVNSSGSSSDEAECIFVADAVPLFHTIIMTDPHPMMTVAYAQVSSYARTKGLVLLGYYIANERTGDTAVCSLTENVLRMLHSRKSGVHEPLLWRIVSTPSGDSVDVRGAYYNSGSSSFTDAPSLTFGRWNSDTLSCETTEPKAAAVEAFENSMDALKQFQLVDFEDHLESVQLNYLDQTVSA

Legend:
[1] = molecular target: TbEMC3-HA (Trypanosoma brucei) (UniProt Q38BC5); test: co-IP; lysates of T. brucei procyclic forms co-expressing one HA-tagged and one cMyc-tagged TbEMC; 10 mM Tris-HCl pH 7.4, 150 mM NaCl, 1 mM EDTA, 1% Triton X-100, 0.5% NP-40; anti-HA or anti-cMyc antibody with Protein G Dynabeads, 16 h; SDS-PAGE and immunoblot; both directions
[2] = molecular target: TbEMC8-cMyc (Trypanosoma brucei) (UniProt Q580G6); test: as above

| Substance | binding [1] | binding [2] |
| --- | --- | --- |
| TbEMC8-cMyc (from UniProt Q580G6) | binds |  |
| TbEMC3-HA (from UniProt Q38BC5) |  | binds weakly |

No constants are given. Whether binding was seen depends on the method and setting. Binding seen in cells or lysates may run through a third protein. A result given as binding can be weak or reduced; the word gives no strength.
